Measurements from publication PMC4567078.
No constants are given. Whether binding was seen depends on the method and setting. In cells and extracts the contact can be indirect. Where a sequence is shown, tags or fusion partners need not be part of it.

T1: myc-Myo1b (UniProt Q05096)
T1 sequence: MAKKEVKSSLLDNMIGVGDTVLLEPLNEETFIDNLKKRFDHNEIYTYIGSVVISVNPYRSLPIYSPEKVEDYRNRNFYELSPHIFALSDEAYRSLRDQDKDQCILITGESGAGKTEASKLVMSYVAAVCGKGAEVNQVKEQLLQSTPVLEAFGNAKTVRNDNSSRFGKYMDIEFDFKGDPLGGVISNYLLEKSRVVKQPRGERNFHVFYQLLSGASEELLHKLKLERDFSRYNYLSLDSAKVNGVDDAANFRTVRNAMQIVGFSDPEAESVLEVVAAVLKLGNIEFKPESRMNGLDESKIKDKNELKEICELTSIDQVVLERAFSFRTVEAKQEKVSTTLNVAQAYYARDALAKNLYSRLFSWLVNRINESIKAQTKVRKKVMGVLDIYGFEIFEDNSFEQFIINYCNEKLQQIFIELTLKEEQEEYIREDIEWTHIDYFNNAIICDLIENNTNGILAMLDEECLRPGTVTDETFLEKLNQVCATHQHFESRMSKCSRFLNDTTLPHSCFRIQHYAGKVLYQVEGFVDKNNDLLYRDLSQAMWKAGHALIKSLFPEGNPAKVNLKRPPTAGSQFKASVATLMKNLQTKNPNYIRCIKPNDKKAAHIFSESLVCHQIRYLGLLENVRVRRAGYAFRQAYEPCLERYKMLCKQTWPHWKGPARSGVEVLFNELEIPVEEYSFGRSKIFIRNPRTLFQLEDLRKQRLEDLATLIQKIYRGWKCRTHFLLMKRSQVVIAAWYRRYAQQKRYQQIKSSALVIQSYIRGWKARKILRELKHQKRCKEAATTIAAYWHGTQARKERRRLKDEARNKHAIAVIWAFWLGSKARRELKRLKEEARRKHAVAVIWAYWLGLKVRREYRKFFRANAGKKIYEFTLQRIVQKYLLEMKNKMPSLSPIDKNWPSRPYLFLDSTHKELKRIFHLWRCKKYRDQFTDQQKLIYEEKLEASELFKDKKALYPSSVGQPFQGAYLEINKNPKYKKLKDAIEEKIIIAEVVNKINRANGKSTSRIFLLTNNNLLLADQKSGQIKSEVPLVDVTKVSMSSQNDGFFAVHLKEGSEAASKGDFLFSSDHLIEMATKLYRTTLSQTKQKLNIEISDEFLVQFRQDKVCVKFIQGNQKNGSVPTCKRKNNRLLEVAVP

T2: mouse V5-tagged SIT1 (SIT1-V5) (mouse) (UniProt Q8VDB9)
T2 sequence: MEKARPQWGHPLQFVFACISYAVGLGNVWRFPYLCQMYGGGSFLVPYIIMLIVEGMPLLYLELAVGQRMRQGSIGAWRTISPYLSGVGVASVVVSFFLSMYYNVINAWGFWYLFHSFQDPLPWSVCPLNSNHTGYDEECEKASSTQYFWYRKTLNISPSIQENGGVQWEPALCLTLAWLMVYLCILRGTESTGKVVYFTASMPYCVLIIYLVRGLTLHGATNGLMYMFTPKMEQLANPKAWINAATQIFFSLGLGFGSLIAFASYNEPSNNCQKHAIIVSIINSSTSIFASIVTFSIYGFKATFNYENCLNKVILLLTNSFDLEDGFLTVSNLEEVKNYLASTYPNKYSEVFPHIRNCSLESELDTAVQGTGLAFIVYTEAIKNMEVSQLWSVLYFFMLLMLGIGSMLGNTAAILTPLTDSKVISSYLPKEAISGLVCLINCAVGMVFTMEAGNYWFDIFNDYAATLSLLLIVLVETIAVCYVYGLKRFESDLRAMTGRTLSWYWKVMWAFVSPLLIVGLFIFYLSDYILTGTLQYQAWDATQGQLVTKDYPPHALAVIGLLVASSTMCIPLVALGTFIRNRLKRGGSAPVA


Assays:
myc-Myo1b = target: T1, myc-Myo1b; test: co-IP; attempted co-immunoprecipitation of myc-Myo1b and SIT1-V5 with anti-myc or anti-V5 antibodies; cells and extraction conditions not told; told only in the discussion
[1] = target: T2, mouse V5-tagged SIT1 (SIT1-V5) (mouse); test: as above

| Binder | binding (myc-Myo1b) | binding [1] |
| --- | --- | --- |
| mouse V5-tagged SIT1 (SIT1-V5) (protein, UniProt Q8VDB9 1-592) MEKARPQWGHPLQFVFACISYAVGLGNVWRFPYLCQMYGGGSFLVPYIIMLIVEGMPLLYLELAVGQRMRQGSIGAWRTISPYLSGVGVASVVVSFFLSMYYNVINAWGFWYLFHSFQDPLPWSVCPLNSNHTGYDEECEKASSTQYFWYRKTLNISPSIQENGGVQWEPALCLTLAWLMVYLCILRGTESTGKVVYFTASMPYCVLIIYLVRGLTLHGATNGLMYMFTPKMEQLANPKAWINAATQIFFSLGLGFGSLIAFASYNEPSNNCQKHAIIVSIINSSTSIFASIVTFSIYGFKATFNYENCLNKVILLLTNSFDLEDGFLTVSNLEEVKNYLASTYPNKYSEVFPHIRNCSLESELDTAVQGTGLAFIVYTEAIKNMEVSQLWSVLYFFMLLMLGIGSMLGNTAAILTPLTDSKVISSYLPKEAISGLVCLINCAVGMVFTMEAGNYWFDIFNDYAATLSLLLIVLVETIAVCYVYGLKRFESDLRAMTGRTLSWYWKVMWAFVSPLLIVGLFIFYLSDYILTGTLQYQAWDATQGQLVTKDYPPHALAVIGLLVASSTMCIPLVALGTFIRNRLKRGGSAPVA | no binding |  |
| myc-Myo1b (protein, UniProt Q05096 1-1136) MAKKEVKSSLLDNMIGVGDTVLLEPLNEETFIDNLKKRFDHNEIYTYIGSVVISVNPYRSLPIYSPEKVEDYRNRNFYELSPHIFALSDEAYRSLRDQDKDQCILITGESGAGKTEASKLVMSYVAAVCGKGAEVNQVKEQLLQSTPVLEAFGNAKTVRNDNSSRFGKYMDIEFDFKGDPLGGVISNYLLEKSRVVKQPRGERNFHVFYQLLSGASEELLHKLKLERDFSRYNYLSLDSAKVNGVDDAANFRTVRNAMQIVGFSDPEAESVLEVVAAVLKLGNIEFKPESRMNGLDESKIKDKNELKEICELTSIDQVVLERAFSFRTVEAKQEKVSTTLNVAQAYYARDALAKNLYSRLFSWLVNRINESIKAQTKVRKKVMGVLDIYGFEIFEDNSFEQFIINYCNEKLQQIFIELTLKEEQEEYIREDIEWTHIDYFNNAIICDLIENNTNGILAMLDEECLRPGTVTDETFLEKLNQVCATHQHFESRMSKCSRFLNDTTLPHSCFRIQHYAGKVLYQVEGFVDKNNDLLYRDLSQAMWKAGHALIKSLFPEGNPAKVNLKRPPTAGSQFKASVATLMKNLQTKNPNYIRCIKPNDKKAAHIFSESLVCHQIRYLGLLENVRVRRAGYAFRQAYEPCLERYKMLCKQTWPHWKGPARSGVEVLFNELEIPVEEYSFGRSKIFIRNPRTLFQLEDLRKQRLEDLATLIQKIYRGWKCRTHFLLMKRSQVVIAAWYRRYAQQKRYQQIKSSALVIQSYIRGWKARKILRELKHQKRCKEAATTIAAYWHGTQARKERRRLKDEARNKHAIAVIWAFWLGSKARRELKRLKEEARRKHAVAVIWAYWLGLKVRREYRKFFRANAGKKIYEFTLQRIVQKYLLEMKNKMPSLSPIDKNWPSRPYLFLDSTHKELKRIFHLWRCKKYRDQFTDQQKLIYEEKLEASELFKDKKALYPSSVGQPFQGAYLEINKNPKYKKLKDAIEEKIIIAEVVNKINRANGKSTSRIFLLTNNNLLLADQKSGQIKSEVPLVDVTKVSMSSQNDGFFAVHLKEGSEAASKGDFLFSSDHLIEMATKLYRTTLSQTKQKLNIEISDEFLVQFRQDKVCVKFIQGNQKNGSVPTCKRKNNRLLEVAVP |  | no binding |
